# Measurements: PubChem BioAssay AID1671190 (National Center for Advancing Translational Sciences (NCATS), 2021)
# Chains of the proteins cited; added tags and fusions are not shown. Lines headed by an entry give the natural chain unless they say otherwise; changes in a name come on top.
# UniProt P18054: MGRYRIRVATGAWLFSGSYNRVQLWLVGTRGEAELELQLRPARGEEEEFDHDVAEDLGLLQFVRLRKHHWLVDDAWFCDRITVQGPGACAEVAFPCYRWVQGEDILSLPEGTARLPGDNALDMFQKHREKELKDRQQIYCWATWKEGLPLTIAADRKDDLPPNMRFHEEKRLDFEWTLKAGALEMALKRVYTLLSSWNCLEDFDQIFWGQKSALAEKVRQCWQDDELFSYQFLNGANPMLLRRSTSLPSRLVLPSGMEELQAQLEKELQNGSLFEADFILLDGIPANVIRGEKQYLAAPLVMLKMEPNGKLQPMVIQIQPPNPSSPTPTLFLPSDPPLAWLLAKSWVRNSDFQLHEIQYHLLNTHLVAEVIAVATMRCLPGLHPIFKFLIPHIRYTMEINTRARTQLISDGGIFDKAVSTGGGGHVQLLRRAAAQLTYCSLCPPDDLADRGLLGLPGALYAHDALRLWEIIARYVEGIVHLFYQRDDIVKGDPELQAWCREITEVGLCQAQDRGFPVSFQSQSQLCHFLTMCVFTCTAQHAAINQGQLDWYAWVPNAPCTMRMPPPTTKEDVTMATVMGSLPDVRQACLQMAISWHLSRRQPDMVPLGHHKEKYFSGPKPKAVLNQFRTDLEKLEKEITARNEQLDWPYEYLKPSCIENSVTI
# Out of some 580,000 compounds screened, about 6,100 (1.1%) were called active. Inconclusive means that the source gave no clear call. Such entries were picked first, then a sample of the others. The call rests on the fitted dose curve; in most records, active means well fitted inhibition curve with a large enough effect; inconclusive means small, poorly fitted or top-dose-only effect, or another doubt; inactive means no such curve, though single readings can be large or run the other way. Potencies of inconclusive entries are doubtful fits and often do not repeat.
# Biological target: Polyunsaturated fatty acid lipoxygenase ALOX12 (Homo sapiens) (UniProt P18054)
# Assay: Primary qHTS assay for inhibitors of human arachidonate 12S-lipoxygenase (ALOX12): Round 2
# Details: purified 12hLO, xylenol orange hydroperoxide absorbance; activity change, negative = inhibition: at 108 µM (top of the series) unless noted
# Summary of the method: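 Hydroperoxide product was detected by ferrous iron/xylenol orange as the 573 to 405 nm absorbance ratio. Arachidonic acid at 40 uM (final) was turned over for 30 min at room temperature by 150 nM human 12hLO, pH 7.0 Hepes buffer, after 15 min compound preincubation.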
# On the % scale 0 is the no-effect control and ±100 the full control effect; potency means the concentration at half of the fitted maximal effect.
Compound,Potency,"activity change, negative = inhibition"
O=C(CCl)N1N=C(c2cccs2)CC1c1ccco1 (stereo not drawn),inactive,–
COC(=O)c1ccc2c(=O)n(Cc3ccc(C(=O)NC(C)C)cc3)c(=S)[nH]c2c1,inactive,–
O=S(=O)(c1ccc(-c2csc(=Nc3ccc(F)cc3)n2CCCCCCO)cc1)N1CCCC1,"inconclusive: 89.1 µM [inhibitor, partial curve, poor fit]",–
COc1cccc(Oc2coc3cc(O)ccc3c2=O)c1,"inconclusive: 31.6 µM [inhibitor, single point]",–
Cn1c(CN2CCC3(CCNCC3)C2)cc2ccccc21,"inconclusive: 10 µM [inhibitor, partial curve, poor fit]",–
CCCc1nnc(NC(=O)Cc2coc3c(C)c(C)ccc23)s1,"inconclusive: 141 µM [inhibitor, partial curve, poor fit]",–
Clc1ccc(CN2CCSCC2)c(Cl)c1,"inconclusive: 0.501 µM [inhibitor, full curve, poor fit]",–
O=C(NCCOc1ccccc1F)c1cc([N+](=O)[O-])ccc1N1CCOCC1,"inconclusive: 14.1 µM [inhibitor, full curve, poor fit]",–
CC(C)c1cccc(-c2csc(C(C)(O)c3ccncc3)n2)c1 (stereo not drawn),"inconclusive: 89.1 µM [inhibitor, single point]",–
Oc1ccc(N2CCN(C(c3cccs3)c3nnnn3CCc3ccccc3)CC2)cc1 (stereo not drawn),"inconclusive: 50.1 µM [inhibitor, partial curve, poor fit]",–
Cc1ccc(OCCCOc2ccccc2/C=N/NC(=O)c2cccc(Cl)c2)c(C)c1,inactive,–
COc1ccc(-c2nnc(SCC(=O)c3ccc[nH]3)o2)cc1,inactive,–
COc1ccccc1C(CNC(=O)C(C)(C)Oc1ccc(Cl)cc1)N1CCCC1 (stereo not drawn),"inconclusive: 89.1 µM [inhibitor, partial curve, poor fit]",–
O=C(NC[C@H]1O[C@@H](CC(=O)N2CCc3ccccc32)[C@H](O)[C@@H]1O)C1CC1,"inconclusive: 8.91 µM [inhibitor, full curve]",–
COc1cc2c(c(OCC(=O)NC(C)C)c1)C(=O)O[C@@H](C)CCCC(=O)CCCCC2,inactive,–
Cc1cccc(C(=O)N2CCC3(CC2)CC(Cc2ccc(F)cc2)CCO3)c1 (stereo not drawn),"inconclusive: 56.2 µM [inhibitor, partial curve, poor fit]",–
Cc1ccc(NC(=S)Nc2ccccn2)c(C)c1,active: 11.2 µM,–
O[C@]12CCNC[C@H]1CN(Cc1cccc(N3CCOCC3)c1)CC2,"inconclusive: 10 µM [inhibitor, full curve, poor fit]",–
C/C(=N/NC(=O)c1cccs1)c1ccc(NC(=O)COc2ccc(Cl)cc2Cl)cc1,"inconclusive: 11.2 µM [inhibitor, partial curve, poor fit]",–
Cc1ccc(CSc2nnc(CC(=O)Nc3ccc(C)cc3)n2C)cc1,"inconclusive: 44.7 µM [inhibitor, partial curve, poor fit]",–
Nc1nccnc1C(=O)Nc1cccc(OCc2ccccn2)c1,inactive,–
CCN(CC)CCN(CC)Cc1ccccc1Br,"inconclusive: 11.2 µM [inhibitor, full curve, poor fit]",–
CSc1ncccc1C(=O)OCC(=O)N1CC(=O)Nc2ccccc21,"inconclusive: 8.91 µM [inhibitor, full curve, poor fit]",–

# Rewritten with tabs: entries from further up.
Compound	Potency	activity change, negative = inhibition
COc1ccc(-c2nnc(SCC(=O)c3ccc[nH]3)o2)cc1	inactive	–
COc1ccccc1C(CNC(=O)C(C)(C)Oc1ccc(Cl)cc1)N1CCCC1 (stereo not drawn)	inconclusive: 89.1 µM [inhibitor, partial curve, poor fit]	–
O=C(NC[C@H]1O[C@@H](CC(=O)N2CCc3ccccc32)[C@H](O)[C@@H]1O)C1CC1	inconclusive: 8.91 µM [inhibitor, full curve]	–
COc1cc2c(c(OCC(=O)NC(C)C)c1)C(=O)O[C@@H](C)CCCC(=O)CCCCC2	inactive	–
Cc1cccc(C(=O)N2CCC3(CC2)CC(Cc2ccc(F)cc2)CCO3)c1 (stereo not drawn)	inconclusive: 56.2 µM [inhibitor, partial curve, poor fit]	–
Cc1ccc(NC(=S)Nc2ccccn2)c(C)c1	active: 11.2 µM	–

# Remaining list, next part:

Compound,Potency,"activity change, negative = inhibition"
COc1ccc(/C=C(/F)c2nc3ccccc3s2)cc1,inactive,–
Cc1cc(C)n(CCC(=O)N/N=C/c2c(O)ccc3ccccc23)n1,"inconclusive: 56.2 µM [inhibitor, partial curve, poor fit]",–
CC(NC(=S)Nc1ccc(Cl)cc1)C(c1ccccc1)N1CCOCC1 (stereo not drawn),"inconclusive: 112 µM [inhibitor, single point]",–
CN1CCN(c2cc(-c3ccccc3)nc3cc(-c4ccc(F)cc4)nn23)CC1,"inconclusive: 126 µM [inhibitor, single point]",–
CCn1c(=O)c(C(=O)Nc2nc3ccccc3[nH]2)c(O)c2ccccc21,inactive,–
CCN(CC)c1nc2ccccc2nc1C(C#N)S(=O)(=O)c1ccc(C)cc1 (stereo not drawn),active: 14.1 µM,–
O=C(Nc1ccc(N2CCCC2)cc1)c1ccc(Br)cc1,"inconclusive: 89.1 µM [inhibitor, partial curve, poor fit]",–
S=C(NCc1ccc(Cl)cc1)Nc1ccc(Br)cn1,active: 4.47 µM,–
CSCCC(NC(=O)c1cc(S(=O)(=O)N2CCOCC2)ccc1F)c1nc2ccccc2[nH]1 (stereo not drawn),"inconclusive: 70.8 µM [inhibitor, partial curve, poor fit]",–
CCN1C(=O)[C@H]2[C@@H](c3ccccc3)N[C@]3(CCCN(Cc4ccccc4)C3=O)[C@H]2C1=O,"inconclusive: 22.4 µM [inhibitor, partial curve]",–
CC(=O)/C(N=Nc1cccc(C(F)(F)F)c1)=C(\C)O,inactive,–
Cn1c(-c2ccccc2)csc1=N,"inconclusive: 4.47 µM [inhibitor, full curve, poor fit]",–
COCCCNS(=O)(=O)c1ccc(C)cc1,"inconclusive: 0.355 µM [inhibitor, full curve, poor fit]",–
Cc1ccc(C(C)C)c(OCC(=O)NCc2ccc(Cn3cccn3)cc2)c1,inactive,–
COC(=O)[C@@H]1Cc2c([nH]c3ccccc23)[C@H]2C[C@@H](NCc3cccnc3)C[C@@H](c3ccc(OC(F)(F)F)cc3)N21,inactive,–
COc1ccc(-c2cc(C[C@H]3CNCC[C@H]3CC(=O)NCCN3CCOCC3)no2)cc1,"inconclusive: 17.8 µM [inhibitor, full curve, poor fit]",–
CC(C)(C(=O)O)c1ccc(Cl)c(Cl)c1,inactive,–
COc1cccc(CN2CCC(C(=O)N3CCC(C)CC3)CC2)c1,inactive,–
Cc1ccc(S(=O)(=O)Nc2nc3ccccc3nc2Nc2ccc(C(=O)O)cc2)c(C)c1,"inconclusive: 5.62 µM [inhibitor, full curve]",–
C=CCNc1nc(Nc2ccc(OC)cc2)nc(OCC)n1,"inconclusive: 50.1 µM [inhibitor, partial curve, poor fit]",–
COc1ccc(C(=O)NC2CCN(c3cnn(CC4CC4)c(=O)c3)CC2)cc1OC,"inconclusive: 35.5 µM [inhibitor, single point]",–
COC(=O)c1cccc(NC(=O)NCC2CCN(CCc3ccc(F)cc3)CC2)c1,"inconclusive: 44.7 µM [inhibitor, partial curve, poor fit]",–
CCN(C(=S)Nc1cc(S(=O)(=O)N2CCOCC2)ccc1Cl)c1cccc2ccccc12,inactive,–

Compound,Potency,"activity change, negative = inhibition"
O=C(Cc1cccc(Cl)c1)N1CCNc2cnc(Nc3cccc(C(F)(F)F)c3)nc2C1,"inconclusive: 8.91 µM [inhibitor, full curve]",–
CCOC(=O)C1=C(COC(=O)COc2ccccc2C(C)C)NC(=O)NC1C (stereo not drawn),"inconclusive: 141 µM [inhibitor, single point]",–
Cc1nn(C)c(C(=O)NNC(=S)Nc2ccc(F)cc2)c1[N+](=O)[O-],inactive,–
CCN(C(=O)CN(C)C(c1cccc(F)c1)c1ccccn1)C1CC1 (stereo not drawn),"inconclusive: 25.1 µM [inhibitor, single point]",–
CCOC(=O)C1CCN(C(=O)c2ccc3c(c2)sc2nc(-c4ccc(OC)cc4)cn23)CC1,–,inconclusive: -31.9% [inhibitor]
N#CCCn1c(=O)c(-c2ccc(Cl)cc2)nc2cnc(N3CCOCC3)nc21,"inconclusive: 31.6 µM [inhibitor, partial curve, poor fit]",–
COC(=O)c1ccc2c(=O)n(CCN3CCOCC3)c(SCC(=O)NCc3ccccc3)nc2c1,"inconclusive: 100 µM [inhibitor, single point]",–
CCCCCCCCS(=O)CCCl (stereo not drawn),inactive,–
CN(C)CCCN(C(=O)c1ccc(S(=O)(=O)N2CCc3ccccc3C2)cc1)c1nc2ccc(F)cc2s1,"inconclusive: 79.4 µM [inhibitor, single point]",–
Cc1cccc(C)c1NC(=O)C(c1ccnc2ccccc12)n1c(=O)c(-c2ccco2)nc2ccccc21 (stereo not drawn),"inconclusive: 39.8 µM [inhibitor, partial curve]",–
C[N+](C)(C)CCC(=O)c1cccc2ccccc12,"inconclusive: 20 µM [inhibitor, full curve, poor fit]",–
COc1cc2oc(=O)c(CC(=O)N3CCC(O)(c4ccc(Cl)cc4)CC3)c(C)c2cc1OC,inactive,–
CCn1c(C)cc2c(c1=O)C(c1ccccc1)C(C(=O)OC)=C(N)O2 (stereo not drawn),"inconclusive: 35.5 µM [inhibitor, partial curve, poor fit]",–
COc1ccc(-c2nc(SC(CC(=O)NCc3ccco3)c3ccccc3)n[nH]2)cc1 (stereo not drawn),"inconclusive: 50.1 µM [inhibitor, partial curve, poor fit]",–
CC1CCC/C(=N\NC(=S)NCc2ccccc2)C1 (stereo not drawn),inactive,–
Cc1ccc(-c2cc(C(=O)NCCCN3CCOCC3)c3ccccc3n2)cc1C,inactive,–
Cc1ccc2oc(=O)cc(CN(Cc3ccccc3)Cc3ccco3)c2c1,"inconclusive: 79.4 µM [inhibitor, partial curve, poor fit]",–
C/C(=N\N=C(N)N)c1ccc(Cl)cc1Cl,inactive,–
Cc1c(C(=O)OC2CCCCCC2)[nH]c2c1C(=O)CC(c1ccccc1)C2 (stereo not drawn),inactive,–
COCc1nc(C2CCCN(C(=O)c3sccc3C)C2)no1 (stereo not drawn),"inconclusive: 14.1 µM [inhibitor, partial curve, poor fit]",–
CCOc1ccccc1NC(=O)C(Sc1ccccc1)c1ccccc1 (stereo not drawn),inactive,–
C=CCc1cccc2cc(C(=O)Nc3ccc(S(=O)(=O)Nc4nnc(CC)s4)cc3)c(=O)oc12,inactive,–
